Experimental data published in EP1228077B1, “RUTHENIUM (II) COMPLEXES WITH HIGH ANTITUMORAL AND ANTIMETASTATIC ACTIVITIES” (priority 1999, dated 2001).
For at least one compound, name, drawing or mass did not settle the structure.

Test system: MCa mammary carcinoma
Experiment: Example 8: primary tumour weight variation in mice with MCa mammary carcinoma
Format: in vivo
Settings: weight variation with respect to the controls, day 12 to day 18; i.p. treatment day 12 to 17

CS(C)=O.[Cl-].[Cl-].[Cl-].[Cl-].[Ru+3].c1c[nH+]c[nH]1.c1c[nH]cn1 [RUT, (ImH)[trans-RuCl4(Me2SO)(Im)]]
(%) Variation primary tumour: - 33%
